This is an account of results in paper PMC2359919, “Molecular targeting of retinoic acid metabolism in neuroblastoma: the role of the CYP26 inhibitor R116010 in vitro and in vivo” (British Journal of Cancer, 2007).

This data set relates to SH-SY5Y, NGP, SH-EP and GIMEN cells. As to the kind of experiment: Intracellular ATRA and 13cisRA concentrations in neuroblastoma cells, normal-phase HPLC. Format: cell-based, human. Particulars: 24 h. The method, then:
SH-SY5Y, SH-EP (N- and S-type cells respectively derived from the parental line SK-N-SH), LAN6, IMR-32, NGP and GIMEN neuroblastoma cell lines were cultured routinely in RPMI 1640 medium containing fetal calf serum (10%) and L-glutamine (2 mM). Cells were grown at 37°C in a humidified incubator containing 5% CO2.
13-cis-Retinoic acid and ATRA were dissolved in DMSO and diluted in cell culture medium to obtain final concentrations of 0.1–10 μM. The final concentration of DMSO in all cases was <0.2%. All experiments were performed in dim light and tubes containing retinoids were wrapped in aluminium foil.
Cell pellets obtained from retinoid incubations were re-suspended in 2 ml cell culture medium and disrupted by passing the samples several times through a syringe and hypodermic needle (25G × 1 inches, 0.5 mm × 25 mm; Terumo, Somerset, NJ, USA). […] Samples were reconstituted in 200 μl mobile phase A (n-hexane:dichloromethane:propan-2-ol, 400 : 1 : 0.27) and analysed by normal-phase HPLC as described previously ([Veal et al, 2002]). […]
Quantification of retinoid levels was carried out by HPLC analysis using a Waters 2690 Separations Module and 996 Photodiode array detector (Waters Ltd, Elstree, UK) and Waters Millennium software for data acquisition. Cell volumes were determined as described previously ([Veal et al, 2002]), and intracellular RA concentrations were expressed in micromolars.

Bounds are passed on as bounds.

Regarding `CC1=C(/C=C/C(C)=C/C=C/C(C)=C/C(=O)O)C(C)(C)CCC1` [ATRA, all-trans-retinoic acid], the “ATRA as % of total RA after 13cisRA incubation” value (10 μM 13cisRA alone or with R116010 (1 or 10 μM)) is given as 15–31%. Regarding `CC1=C(/C=C/C(C)=C/C=C/C(C)=C\C(=O)O)C(C)(C)CCC1` [13cisRA, 13-cis-retinoic acid], where the note is “10 μM ATRA alone or with R116010 (1 or 10 μM)”, the “13cisRA as % of total RA after incubation with ATRA” value was less than 10%.
